No constants are given. Whether binding was seen depends on the method and setting. Some binding calls cover weakened binding; strength is not graded here.
Target: IGF-I receptor in homogenized adult rat brain tissue (cerebral cortex and cerebellum) (rat) (UniProt P24062)
Assay: displacement of 125I-[Thr59]IGF-I from homogenised rat brain tissue

Protein sequences, listed by entry. Tags and fused reporters are not part of them. Lines headed by an entry give the natural chain unless they say otherwise; changes in a name come on top. Residues count along the entry.
UniProt P24062, residues 31-1370: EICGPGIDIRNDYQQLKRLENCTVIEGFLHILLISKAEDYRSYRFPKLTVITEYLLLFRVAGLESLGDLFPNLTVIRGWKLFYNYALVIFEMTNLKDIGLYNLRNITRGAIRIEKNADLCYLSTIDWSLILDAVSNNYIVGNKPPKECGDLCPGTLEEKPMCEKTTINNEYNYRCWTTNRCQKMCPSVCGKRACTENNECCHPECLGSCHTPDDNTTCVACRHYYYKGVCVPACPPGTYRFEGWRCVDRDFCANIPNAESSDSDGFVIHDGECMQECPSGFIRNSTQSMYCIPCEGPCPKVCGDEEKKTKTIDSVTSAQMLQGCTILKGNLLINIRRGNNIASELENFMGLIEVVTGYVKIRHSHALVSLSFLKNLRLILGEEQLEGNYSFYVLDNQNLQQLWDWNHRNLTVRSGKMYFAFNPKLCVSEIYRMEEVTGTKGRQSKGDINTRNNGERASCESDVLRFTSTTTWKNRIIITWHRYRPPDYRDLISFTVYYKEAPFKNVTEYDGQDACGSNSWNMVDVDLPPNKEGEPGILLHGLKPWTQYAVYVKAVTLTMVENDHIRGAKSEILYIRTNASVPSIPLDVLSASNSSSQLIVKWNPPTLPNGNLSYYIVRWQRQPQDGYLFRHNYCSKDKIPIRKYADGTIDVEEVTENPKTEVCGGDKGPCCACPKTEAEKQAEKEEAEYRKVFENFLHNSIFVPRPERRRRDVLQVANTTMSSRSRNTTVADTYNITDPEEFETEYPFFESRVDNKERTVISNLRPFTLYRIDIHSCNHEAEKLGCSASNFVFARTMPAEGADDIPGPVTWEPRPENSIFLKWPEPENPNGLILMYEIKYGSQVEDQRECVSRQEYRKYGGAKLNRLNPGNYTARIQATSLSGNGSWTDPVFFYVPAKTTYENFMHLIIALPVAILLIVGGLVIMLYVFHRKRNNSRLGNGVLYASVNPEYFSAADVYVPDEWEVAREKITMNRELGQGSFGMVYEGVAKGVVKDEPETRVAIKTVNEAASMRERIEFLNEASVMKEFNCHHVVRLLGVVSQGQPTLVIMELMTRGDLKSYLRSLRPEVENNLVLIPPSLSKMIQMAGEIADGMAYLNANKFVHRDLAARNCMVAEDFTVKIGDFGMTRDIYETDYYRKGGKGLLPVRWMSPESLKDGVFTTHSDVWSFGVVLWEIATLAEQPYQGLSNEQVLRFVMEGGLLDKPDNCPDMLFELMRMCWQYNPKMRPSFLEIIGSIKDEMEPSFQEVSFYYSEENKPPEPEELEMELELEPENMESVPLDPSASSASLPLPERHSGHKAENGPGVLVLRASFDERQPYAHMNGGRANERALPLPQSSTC
UniProt P05019: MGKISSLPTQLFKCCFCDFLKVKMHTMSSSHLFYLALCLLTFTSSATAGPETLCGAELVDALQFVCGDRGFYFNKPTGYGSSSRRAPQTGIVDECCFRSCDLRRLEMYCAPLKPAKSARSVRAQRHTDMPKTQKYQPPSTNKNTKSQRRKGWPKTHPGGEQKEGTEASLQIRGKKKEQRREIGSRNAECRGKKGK

Substance	binding
Human IGF-I (Somatomedin-C) (from UniProt P05019 49-118) (ligand)	binds
IGF-I(4-70) (Human Brain IGF) (from UniProt P05019 52-118) (ligand)	binds
